Test results reported in PMC5924763.
No constants are given. Whether binding was seen depends on the method and setting. Binding seen in cells or lysates may run through a third protein. Some entries that bind do so weakly or less than the wild type. Where a sequence is shown, tags or fusion partners need not be part of it. One block for each binder: values may come before it.

Sequences of proteins named here, by UniProt entry; tags and fusion partners are left off.
UniProt O95905: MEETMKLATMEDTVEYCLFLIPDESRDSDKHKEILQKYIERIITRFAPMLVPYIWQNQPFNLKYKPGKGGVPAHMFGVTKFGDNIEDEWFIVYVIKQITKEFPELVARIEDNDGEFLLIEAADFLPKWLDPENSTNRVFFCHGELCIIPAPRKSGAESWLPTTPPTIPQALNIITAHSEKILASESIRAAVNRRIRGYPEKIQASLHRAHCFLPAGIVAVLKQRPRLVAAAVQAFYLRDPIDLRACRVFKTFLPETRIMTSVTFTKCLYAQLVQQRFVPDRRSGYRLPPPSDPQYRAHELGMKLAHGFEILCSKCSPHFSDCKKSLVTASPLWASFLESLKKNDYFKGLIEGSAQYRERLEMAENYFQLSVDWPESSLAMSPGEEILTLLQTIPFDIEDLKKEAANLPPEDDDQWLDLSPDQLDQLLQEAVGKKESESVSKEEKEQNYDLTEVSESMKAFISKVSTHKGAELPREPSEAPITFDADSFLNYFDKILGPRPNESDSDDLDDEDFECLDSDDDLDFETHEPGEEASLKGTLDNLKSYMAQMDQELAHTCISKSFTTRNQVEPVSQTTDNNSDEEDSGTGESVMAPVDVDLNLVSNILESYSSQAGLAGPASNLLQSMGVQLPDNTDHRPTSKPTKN

Assays:
Flag-hnRNP F [1] = target: T1, Flag-hnRNP F (UniProt P52597); experiment: co-IP; HeLa cells co-transfected with Flag-hnRNP F, HA-ZFP91 and ECD plasmids (none or indicated doses); anti-Flag IP; ZFP91 detected with anti-HA antibodies
T1 sequence: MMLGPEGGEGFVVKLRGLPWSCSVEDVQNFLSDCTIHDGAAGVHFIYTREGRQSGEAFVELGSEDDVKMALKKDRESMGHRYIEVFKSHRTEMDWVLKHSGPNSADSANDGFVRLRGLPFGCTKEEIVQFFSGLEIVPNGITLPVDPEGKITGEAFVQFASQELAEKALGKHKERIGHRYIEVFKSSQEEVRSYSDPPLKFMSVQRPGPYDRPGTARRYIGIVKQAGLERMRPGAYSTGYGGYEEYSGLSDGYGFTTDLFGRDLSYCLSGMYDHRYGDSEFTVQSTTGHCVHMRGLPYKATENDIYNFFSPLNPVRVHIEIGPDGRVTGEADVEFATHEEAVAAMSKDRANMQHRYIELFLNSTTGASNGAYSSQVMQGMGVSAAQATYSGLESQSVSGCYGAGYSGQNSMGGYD

Flag-hnRNP F [2] = target: T1, Flag-hnRNP F; experiment: co-IP; SGC-7901 cells co-transfected with a Flag plasmid (Flag-hnRNP F or Flag-ECD) and HA-ZFP91; complexes of the Flag protein or of HA-ZFP91 immunoprecipitated; partner detected with HA or Flag antibodies
[3] = target: Flag-ECD (wild-type human ecdysoneless homolog) (human) (UniProt O95905); experiment: as above
HA-hnRNP F = target: T2, HA-hnRNP F (UniProt P52597); experiment: co-IP; HeLa cells transfected with Flag-ECD mutants, HA-hnRNP F and ZFP91; anti-HA IP; ZFP91 detected with anti-Flag antibodies
T2 sequence: T1 sequence

- binding (Flag-hnRNP F [1]): binds
- binding (Flag-hnRNP F [2]): binds
- binding [3]: binds
B1: HA-ZFP91 (enzyme, UniProt Q96JP5 1-570)
chain: MPGETEEPRPPEQQDQEGGEAAKAAPEEPQQRPPEAVAAAPAGTTSSRVLRGGRDRGRAAAAAAAAAVSRRRKAEYPRRRRSSPSARPPDVPGQQPQAAKSPSPVQGKKSPRLLCIEKVTTDKDPKEEKEEEDDSALPQEVSIAASRPSRGWRSSRTSVSRHRDTENTRSSRSKTGSLQLICKSEPNTDQLDYDVGEEHQSPGGISSEEEEEEEEEMLISEEEIPFKDDPRDETYKPHLERETPKPRRKSGKVKEEKEKKEIKVEVEVEVKEEENEIREDEEPPRKRGRRRKDDKSPRLPKRRKKPPIQYVRCEMEGCGTVLAHPRYLQHHIKYQHLLKKKYVCPHPSCGRLFRLQKQLLRHAKHHTDQRDYICEYCARAFKSSHNLAVHRMIHTGEKPLQCEICGFTCRQKASLNWHMKKHDADSFYQFSCNICGKKFEKKDSVVAHKAKSHPEVLIAEALAANAGALITSTDILGTNPESLTQPSDGQGLPLLPEPLGNSTSGECLLLEAEGMSKSYCSGTERVSLMADGKIFVGSGSSGGTEGLVMNSDILGATTEVLIEDSDSAGP

- binding (HA-hnRNP F): binds
B2: ZFP91 (as co-expressed with HA-hnRNP F and Flag-ECD mutants, Fig. 6f) (enzyme, UniProt Q96JP5 1-570)
chain: B1 chain
